Data from PMC12040169 (PLOS Biology, 2025).
This is one part of the list.

What follows are compounds tested on T1, CTL2-GFP (C. trachomatis L2/434/Bu, GFP-expressing). Settings: bulk GFP, single well; 28.5 h, 10 µM; inhibitor.
T1 construct: L2/434/Bu, GFP-expressing
Set-up: species or system HeLa; Intracellular C. trachomatis growth in HeLa cells, bulk GFP fluorescence relative to DMSO

Compared with `O=C(COc1ccc(Br)cc1)Nc1ccc(Cl)c(-c2nc3ccccc3[nH]2)c1` [CBK263075], `N#C/C(=C\c1ccc(Oc2ccc(C(F)(F)F)cc2[N+](=O)[O-])cc1)c1nc2ccccc2[nH]1` [CBK263878] is lower in “% of control remaining” value: 101.097% for the first, 97.1243% for the second.

Going from `Cc1ccc2[nH]c([C@H]3CCN(C(=O)NC(C)C)C3)nc2c1` [CBK289375] to `O=C(c1n[nH]c2c1CCC2)N1CCC(c2ccccc2)C1` (stereo not shown) [CBK281851], the “% of control remaining” value falls from 143.438% to 108.113%.

Going from `CCc1nc2ccc(C(=O)Nc3ccc(Cl)c(Cl)c3)cn2c1N(CC)CCOC` [CBK146042] to `CCCSc1ncc(Cl)c(C(=O)Nc2ccc(C(=O)OC)cc2)n1` [CBK268824], the “% of control remaining” value falls from 146.887% to 99.3677%.

Going from `COc1cc(Nc2cncc(-c3cccnc3)n2)cc(OC)c1OC` [CBK065201] to `COc1cc(NC(=O)c2ccc3c(c2)C(=O)N(c2ccccc2OC)C3=O)c(C(=O)O)cc1OC` [CBK262787], the “% of control remaining” value falls from 279.38% to 105.267%.

First: CN1CCN(C(=O)c2[nH]c3ccccc3c2NS(=O)(=O)/C=C/c2ccccc2)CC1 [CBK050047]
Second: O=C(c1cc(-c2ccncc2)nc2ccc(Cl)cc12)N1CCN(CCc2ccccc2)CC1 [CBK267719]
The “% of control remaining” value of the first is lower: 74.0344% for the first, 122.313% for the second.

Going from `c1ccc(-c2cc(CC3(NCc4c[nH]c5ccccc45)COC3)no2)nc1` [CBK289250] to `Cc1ccccc1C(=O)NCC(=O)NCc1csc(-c2ccccc2)n1` [CBK092334], the “% of control remaining” value rises from 106.321% to 120.417%.

First: CCOC(=O)N1CCN(C(=O)c2ccc(CS(=O)(=O)c3ccc(C)cc3)cc2)CC1 [CBK268659]
Second: O=C(c1ccc(Cl)cc1)c1ccc(OCC(=O)N2CCN(C(=O)c3ccco3)CC2)cc1 [CBK295658]
The “% of control remaining” value of the first is higher: 138.636% for the first, 95.904% for the second.

First: CCCC1=NNC(=O)/C1=C\c1cnc[nH]1 [CBK067767]
Second: CCOC(=O)C(C)N1C(=O)S/C(=C/c2cc(Cl)c(OCC(=O)O)c(Br)c2)C1=O (stereo not shown) [CBK265163]
The “% of control remaining” value of the first is lower: 97.5712% for the first, 100% for the second.

First: CCC1CN(Cc2ccccc2)CCN1c1cncc(Cl)n1 (stereo not shown) [CBK003645]
Second: CC(CC(=O)O)CC(=O)NC1CCN(Cc2ccccc2)CC1 (stereo not shown) [CBK287042]
The “% of control remaining” value of the first is lower: 96.4434% for the first, 117.428% for the second.

Going from `CS(=O)(=O)N1CCCc2cc(-c3csc(N)n3)ccc21` [CBK305859] to `O=c1cc(CN2CCc3ccccc3C2)[nH]c(=O)[nH]1` [CBK126401], the “% of control remaining” value rises from 114.502% to 116.61%.

Going from `CC(C)C(=O)N1CCC(n2nc(C3CC3)ccc2=O)CC1` [CBK282351] to `CC(=O)N1CCC2(CCCC[C@H]3CN(C(=O)C(C)C)CC[C@@H]3NC(=O)CNC2=O)CC1` [CBK292121], the “% of control remaining” value rises from 100.246% to 149.72%.

Compared with `O=C(CSc1nccn1-c1ccccc1)Nc1ccc(F)cc1` [CBK287399], `O=C(CSc1nnc(-c2ccc(Cl)cc2)n1-c1ccccc1)N/N=C/c1ccccn1` [CBK263001] is lower in “% of control remaining” value: 147.997% for the first, 117.532% for the second.

Compared with `O=C(CSc1nnc(-c2ccc(Cl)cc2Cl)o1)c1ccc2c(c1)OCCO2` [CBK268839], `O=C(CSc1nnc2ccc3ccccc3n12)Nc1nsc(-c2ccc(Cl)cc2)n1` [CBK266460] is higher in “% of control remaining” value: 84.08% for the first, 132.034% for the second.

Going from `O=S(=O)(Nc1cccnc1N1CCOCC1)c1cc(C(F)(F)F)cc(C(F)(F)F)c1` [CBK062306] to `Oc1cccc(-c2cncc(NCCCN3CCOCC3)n2)c1` [CBK037858], the “% of control remaining” value rises from 109.958% to 132.049%.

Going from `CCn1cc(C(=O)O)c(=O)c2cnc(N3CCN(C(=S)Nc4cc5oc6ccccc6c5cc4OC)CC3)nc21` [CBK267929] to `COc1cc(CN2CCN(C(=O)c3cccc(F)c3)CC2)cc(OC)c1O` [CBK074633], the “% of control remaining” value falls from 116.735% to 84.9002%.

Compared with `COc1ccc(C=C2CCCC3C2=NN(C(=O)CCC(=O)O)C3c2ccc(OC)c(OC)c2)cc1OC` (stereo not shown) [CBK296070], `COc1cc(C=Cc2nc3cc(Cl)ccc3s2)ccc1OCC(=O)O` [CBK297886] is higher in “% of control remaining” value: 112.543% for the first, 153.986% for the second.

Going from `Cc1ccc(Cc2cnc(NC(=O)CN3CCCCC3)s2)cc1Cl` [CBK307299] to `CC1CCN(Cc2ccc(-c3cn(CC(=O)NCc4ccc(Br)cc4)cn3)cc2)CC1` [CBK165969], the “% of control remaining” value rises from 113.107% to 125.991%.

Going from `O=c1[nH]c(=O)n([C@H]2C[C@@H](O)[C@@H](CO)O2)cc1O` [CBK201317] to `C=CCOc1nc2c(=O)[nH]c(/N=C/N(C)C)nc2n1C1CC(O)C(CO)O1` (stereo not shown) [CBK201299], the “% of control remaining” value rises from 102.818% to 137.027%.

Going from `CCN1CCN(c2ccc(C(=O)OC)cc2NC(=O)c2ccc(C#N)cc2F)CC1` [CBK270171] to `CN1CCN(C(=O)Nc2cccc(-c3nc(-c4ccc(C#N)cc4)cnc3N)c2)CC1` [CBK116251], the “% of control remaining” value falls from 114.693% to 100%.

Going from `O=C(CCCN[C@H]1CC[C@](O)(c2ccc(F)cc2)CC1)c1ccc(F)cc1` [CBK023258C] to `CN(C(=O)c1c[nH]nc1-c1ccc(CNC(=O)Cc2ccc(F)cc2)cc1)c1ccccc1` [CBK285599], the “% of control remaining” value rises from 121.149% to 125.079%.

First: COc1ccc(-c2ccc(=O)n(CCN)n2)cc1 [CBK270130C]
Second: COc1ccc(-c2n[nH]c(=S)n2CC(=O)Nc2ccc(NC(=O)CC(C)C)cc2)cc1 [CBK295342]
The “% of control remaining” value of the first is higher: 149.246% for the first, 124.51% for the second.

First: O=C(O)C(c1c[nH]c2ccccc12)N1CCOCC1 (stereo not shown) [CBK286739]
Second: O=C(Cn1nc(N2CCSCC2)ccc1=O)Nc1ccccc1 [CBK307623]
The “% of control remaining” value of the first is higher: 116.535% for the first, 97.8679% for the second.

Compared with `CCc1nnc(NS(=O)(=O)c2c(C)nn(C)c2Cl)s1` [CBK062180], `Cc1nn(C)c(C)c1OCC(=O)Nc1nc2c(cc1C#N)CCC2` [CBK306371] is higher in “% of control remaining” value: 120.323% for the first, 136.413% for the second.

First: CCOc1cc(OCC)cc(C(=O)N2CCC3(CC2)CC(=O)c2cc(CC)ccc2O3)c1 [CBK168009]
Second: C=CCOc1ccc(CNc2cccc(C(=O)O)c2)cc1OC [CBK074468]
The “% of control remaining” value of the first is higher: 127.062% for the first, 126.012% for the second.

Going from `Cc1cc(C)nc(N2CCC(CC(=O)NCC(C)N3CCCCCC3)CC2)n1` (stereo not shown) [CBK286029] to `COCCNc1nc2c(c(N3CCCCCC3)n1)CCNCC2` [CBK306724], the “% of control remaining” value falls from 117.86% to 8.642%.

First: CC(=O)NC1(CC(=O)N2CC[C@H]3NC(=O)COc4ccccc4C/C=C/C[C@H]3C2)CCCCC1 [CBK292117]
Second: NC(=O)CN1CC2(CCN(CCCCC3NC(=O)NC3=O)CC2)c2ccccc21 (stereo not shown) [CBK126799]
The “% of control remaining” value of the first is lower: 117.096% for the first, 136.872% for the second.

First: Cc1ccccc1CCNC(=O)CCc1c(C)nc2nc(N)nn2c1C [CBK304994]
Second: CCc1c(C)nc2ccccc2c1SCCC(=O)N(C)C [CBK149718T]
The “% of control remaining” value of the first is lower: 122.187% for the first, 127.625% for the second.

Compared with `c1ccc2c(c1)n(CCN1CCOCC1)c1nc(C34CC5CC(CC(C5)C3)C4)cn21` [CBK278154C], `O=C(O)c1ccc(/C=N/Nc2nc(N3CCOCC3)nc(N3CCOCC3)n2)cc1` [CBK262433] is higher in “% of control remaining” value: 124.63% for the first, 131.915% for the second.

Going from `Cc1ccn(-c2ccc(N3CCC(OC4CCCC4)CC3)nn2)n1` [CBK306301] to `O=c1c(N2CCC(Sc3ccccc3)CC2)nccn1Cc1ccc([N+](=O)[O-])cc1` [CBK153654], the “% of control remaining” value falls from 133.274% to 79.2678%.

Going from `CCN(Cc1ccccc1)Cc1c(O)ccc2c(=O)c(-c3ccccc3OC)c(C(F)(F)F)oc12` [CBK265839] to `CC1CCCC(C)N1CC(=O)Nc1ccccc1Oc1ccccc1` (stereo not shown) [CBK015824C], the “% of control remaining” value falls from 118.83% to 75.3793%.

First: COc1ccc(NC(=O)Nc2nn(Cc3c(F)cccc3Cl)cc2Br)c(OC)c1 [CBK266834]
Second: CCN(CC)CCN(CCc1ccc(OC)c(OC)c1)C(=O)Nc1ccc(Cl)cc1 [CBK160510]
The “% of control remaining” value of the first is higher: 147.549% for the first, 93.3495% for the second.

Going from `Cc1nc(C(=O)NCC2CN3CCCN2CC3)ccc1C(=O)O` (stereo not shown) [CBK304242] to `COC(=O)c1c(NC(=S)N2CCN(Cc3c(C)nn(C)c3C)CC2)sc2c1CCC(C)C2` (stereo not shown) [CBK267103], the “% of control remaining” value falls from 142.066% to 133.949%.

Compared with `Cc1cc(C(=O)N2CCn3cc(C(F)(F)F)nc3C2)on1` [CBK282430], `Cc1onc(-c2ccccc2Cl)c1C(=O)Nc1ccc(S(=O)(=O)N2CCC(C)CC2)cc1` [CBK265463] is lower in “% of control remaining” value: 84.8845% for the first, 77.1919% for the second.

Going from `Cc1ncccc1COC(=O)NCCc1ccccn1` [CBK200137] to `Cc1ccc(OCC(=O)NCCCN(C)C)cc1` [CBK263595], the “% of control remaining” value falls from 167.122% to 93.929%.

First: O=c1cc(C(F)F)c2cn(C3CCCC3)nc2[nH]1 [CBK288016]
Second: Cn1cc(CNCC2CCN(c3ccccc3)C2)c(-c2cccnc2)n1 (stereo not shown) [CBK304155]
The “% of control remaining” value of the first is lower: 106.508% for the first, 125.825% for the second.

First: O=C(c1ccccc1F)N1C[C@H](c2ccsc2)[C@H]2CN(Cc3ccccc3F)CC[C@H]21 [CBK285656]
Second: CC(=O)Nc1ccc(CNC(=O)c2ccc[nH]2)cc1 [CBK304538]
The “% of control remaining” value of the first is lower: 57.4292% for the first, 131.489% for the second.

Compared with `c1coc(CNc2nccnc2-c2cccs2)c1` [CBK036618], `O=C(O)c1cccc(NS(=O)(=O)c2cccnc2)c1` [CBK155700] is lower in “% of control remaining” value: 125.591% for the first, 94.5877% for the second.

Compared with `Cc1ccc(OC(C)C(=O)Nc2ccc(S(=O)(=O)Nc3cc(C)on3)cc2)cc1` (stereo not shown) [CBK268757], `CCN1CCOC(CNCc2ccc(OCC(N)=O)cc2)C1` (stereo not shown) [CBK305108] is higher in “% of control remaining” value: 72.2463% for the first, 91.7765% for the second.
